Literature values in patent US10633688B2, “Systems and methods for predicting response to minoxidil for the treatment of androgenetic alopecia” (Follea International, priority 2010, dated 2020).
At least one compound was matched to its structure with a doubt left.

Test system: androgenetic alopecia

For `Nc1cc(N2CCCCC2)nc(N)[n+]1[O-]` [minoxidil], the “patients experiencing hair growth” value (16 weeks of minoxidil (5%) mono-therapy) is given as “approximately 38.6%” and the “efficacy in the overall population” value (topical minoxidil) is given as 30-40%.
